{"sequences": {"note": "Amino acid sequences for entries named in this document (tags omitted). A change or cut given only in a name is not applied to a line headed by its entry.", "UniProt O15379": "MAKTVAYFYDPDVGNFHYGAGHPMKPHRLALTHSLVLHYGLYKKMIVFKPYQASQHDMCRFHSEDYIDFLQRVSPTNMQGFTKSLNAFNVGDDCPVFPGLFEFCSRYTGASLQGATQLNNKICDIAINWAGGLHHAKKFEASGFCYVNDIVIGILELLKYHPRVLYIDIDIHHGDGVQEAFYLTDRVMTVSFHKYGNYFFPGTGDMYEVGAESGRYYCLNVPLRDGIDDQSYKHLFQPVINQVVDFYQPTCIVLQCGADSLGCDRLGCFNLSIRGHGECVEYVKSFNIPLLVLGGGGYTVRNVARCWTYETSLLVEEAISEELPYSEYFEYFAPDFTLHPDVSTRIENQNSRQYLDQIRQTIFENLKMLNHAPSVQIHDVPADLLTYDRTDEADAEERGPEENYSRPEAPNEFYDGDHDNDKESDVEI"}, "source": "PubChem BioAssay AID485318", "about": "(Broad Institute, 2010)", "note": "Hit rate of the full screen: of about 1,400 compounds, fewer than 10 were called active.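 How the source made its calls: active means fluorescence-lowering compounds whose fitted half-maximal concentration is at or below ten times the highest valid dose tested; inconclusive means flat curve at 30 to 70% inhibition, or poor fit; inactive means the rest.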 This is one part of the list.", "data": [{"biological_target": "Histone deacetylase 3 (Homo sapiens) (UniProt O15379)", "test": "HDAC3 deacetylase inhibitors, dose response, counter-screen for JMJD2C/GASC1 demethylase inhibitor project, biochemical, fluorescence, cherry-picked samples (AID 485318);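 further: enzyme preincubated with compound before substrate and trypsin were added; 0% = neutral control wells and -100% = SAHA positive control wells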", "conditions": "recombinant HDAC3, fluorogenic peptide/trypsin coupled; at 12 µM (top of the series)", "values": [{"smiles": "N#Cc1c(N2CCCCC2)nc(N)c2c(N)nc(SCC(=O)O)cc12", "activity change, negative = inhibition": "inactive: 0.727%"}, {"smiles": "Cc1ccc(NC(=O)COC(=O)CCc2c[nH]c(=O)[nH]2)cc1", "activity change, negative = inhibition": "inactive: 0.364%"}, {"smiles": "O=c1c2ccccc2nc2c3ccccc3c(NCc3ccco3)nn12", "activity change, negative = inhibition": "inactive: 0.625%"}, {"smiles": "CN(C(=O)c1ccc(Cl)c([N+](=O)[O-])c1)C1(C)CCS(=O)(=O)C1", "note": "(stereo not drawn)", "activity change, negative = inhibition": "inactive: -0.387%"}, {"smiles": "Cc1cc(N2CCN(c3ccccc3)CC2)nc(-c2ccccc2)n1", "activity change, negative = inhibition": "inactive: 0.329%"}, {"smiles": "Cc1ccc2c(c1)N(CC(=O)NCC1CCCO1)C(=O)C(C(C)C)O2", "note": "(stereo not drawn)", "activity change, negative = inhibition": "inactive: 0.242%"}, {"smiles": "CCC(C)NC(=S)N1CCN(C)CC1", "note": "(stereo not drawn)", "activity change, negative = inhibition": "inactive: -0.0122%"}, {"smiles": "COc1ccc(OC)c(Nc2nnc(C)c(=O)[nH]2)c1", "activity change, negative = inhibition": "inactive: -0.0817%"}, {"smiles": "CCCc1cc(=O)[nH]c(SCC(=O)Nc2cc(S(=O)(=O)N(CC)c3ccccc3)ccc2Cl)n1", "activity change, negative = inhibition": "inactive: 0.138%"}, {"smiles": "COc1ccc(-c2ccc3oc(-c4ccsc4)cc(=O)c3c2)cn1", "activity change, negative = inhibition": "inactive: 0.0488%"}, {"smiles": "COc1cccc(NC(=O)COC(=O)c2ccc(S(=O)(=O)NCc3ccco3)cc2)c1", "activity change, negative = inhibition": "inactive: 0.629%"}, {"smiles": "NC(=S)Nc1ccc(Cl)cc1Cl", "activity change, negative = inhibition": "inactive: 0.172%"}, {"smiles": "Cc1ccc(NC(=O)C2C3CCCC2C3c2ccccc2)cc1C", "note": "(stereo not drawn)", "activity change, negative = inhibition": "inactive: 0.0447%"}, {"smiles": "Cn1nnc(NC(=O)CSc2ccc(Cl)cc2)n1", "activity change, negative = inhibition": "inactive: 0.42%"}, {"smiles": "COC(=O)[C@@H](N)Cc1ccc(O)c(O)c1", "activity change, negative = inhibition": "inactive: 0.773%"}, {"smiles": "COc1ccc(-n2cc(C(=O)O)c3ccccc3c2=O)cc1", "activity change, negative = inhibition": "inactive: 0.371%"}, {"smiles": "Cc1occc1-c1nnc(SCC(=O)c2c[nH]c3ccccc23)n1C", "activity change, negative = inhibition": "inactive: -0.0822%"}, {"smiles": "COc1cccc2c1nc(C)c1cc(C)oc12", "activity change, negative = inhibition": "inactive: -0.255%"}, {"smiles": "Oc1ccc(C2Nc3cccc4cccc(c34)N2)cc1", "activity change, negative = inhibition": "inactive: 0.811%"}, {"smiles": "O=C(O)c1cc2cc(Cl)ccc2oc1=O", "activity change, negative = inhibition": "inactive: 0.621%"}, {"smiles": "C[C@H](CO)N1C[C@H](C)[C@@H](CN(C)Cc2ccc3c(c2)OCO3)Oc2c(NC(=O)C3CCCCC3)cccc2C1=O", "activity change, negative = inhibition": "inactive: -0.26%"}, {"smiles": "CCn1c(SCC(=O)Nc2nc(C)cs2)nnc1-c1ccncc1", "activity change, negative = inhibition": "inactive: -0.0423%"}, {"smiles": "Cc1cccc(NC(=O)/C(=C\\c2ccc([N+](=O)[O-])o2)NC(=O)c2ccc(Cl)cc2)c1", "activity change, negative = inhibition": "inactive: -0.108%"}, {"smiles": "CCC(=O)N1c2ccc(S(=O)(=O)CCC(=O)NCCC3=CCCCC3)cc2CC1C", "note": "(stereo not drawn)", "activity change, negative = inhibition": "inactive: -0.483%"}, {"smiles": "COc1ccccc1N1CCN(C(=O)CSc2nc(C)cc(=O)[nH]2)CC1", "activity change, negative = inhibition": "inactive: 0.631%"}, {"smiles": "O=C(Nc1cc(S(=O)(=O)N2CCOCC2)ccc1N1CCCC1)c1ccc(F)cc1", "activity change, negative = inhibition": "inactive: -0.0837%"}, {"smiles": "Cc1cc2cc3c(cc2nc1SCC(=O)N1CCOCC1)OCO3", "activity change, negative = inhibition": "inactive: 0.249%"}, {"smiles": "C[C@H]1CN([C@@H](C)CO)C(=O)c2cccc(NS(=O)(=O)c3ccc(F)cc3)c2O[C@H]1CN(C)S(=O)(=O)c1cn(C)cn1", "activity change, negative = inhibition": "inactive: -0.218%"}, {"smiles": "C[C@@H]1O[C@@H](OC[C@H]2O[C@@H](Oc3cc(O)c4c(=O)cc(-c5ccc(O)c(O)c5)oc4c3)[C@H](O)[C@@H](O)[C@@H]2O)[C@H](O)[C@H](O)[C@H]1O", "activity change, negative = inhibition": "inactive: -1.04%"}, {"smiles": "Cc1ccc(C2CC(c3cccc(Br)c3)Nc3nnnn32)cc1", "note": "(stereo not drawn)", "activity change, negative = inhibition": "inactive: -0.821%"}, {"smiles": "COC(=O)[C@]1(C)N[C@H](CN(C)C(=O)NC(C)C)[C@@H]2C(=O)N(Cc3ccccc3)C(=O)[C@@H]21", "activity change, negative = inhibition": "inactive: 0.2%"}, {"smiles": "C#CCOCCOCCOCCNc1nc(N2CCN(C(=O)[C@H](CCCN=C(N)N)n3cc(C(N)[C@@H](C)CC)nn3)CC2)nc(N2CCN(C(=O)[C@H](CCC(=O)O)n3cc([C@@H](N)[C@H](C)CC)nn3)CC2)n1", "note": "(stereo partly drawn)", "activity change, negative = inhibition": "inactive: 0.208%"}, {"smiles": "O=C1CC(=O)N(Cc2ccco2)C(=O)N1", "activity change, negative = inhibition": "inactive: -0.805%"}, {"smiles": "CCOC(=O)CCCCCC(=O)Nc1ccc2c(c1)CC(=O)N([C@@H](C)CO)C[C@H](C)[C@@H](CN(C)C(=O)Nc1ccc3c(c1)OCO3)O2", "activity change, negative = inhibition": "inactive: -0.431%"}, {"smiles": "COc1cc2c(cc1OC)C(COc1ccc(F)cc1)NCC2", "note": "(stereo not drawn)", "activity change, negative = inhibition": "inactive: -0.498%"}, {"smiles": "C/C(=N\\NC(=S)NCc1ccccc1)c1ccco1", "activity change, negative = inhibition": "inactive: 0.176%"}, {"smiles": "Cc1ccc(NC(=O)CSc2nc3c(c(=O)[nH]2)CN(Cc2ccc(F)cc2)CC3)cc1C", "activity change, negative = inhibition": "inactive: -0.095%"}, {"smiles": "Cn1c(SCC(=O)N2CCCC2=O)nnc1-c1ccccc1F", "activity change, negative = inhibition": "inactive: 0.346%"}, {"smiles": "CCN(CC)C(=O)[C@H]1CC(CC(=O)NC/C=C(\\C)CCC=C(C)C)C(=O)N2CCc3c([nH]c4ccccc34)[C@]12C", "note": "(stereo partly drawn)", "activity change, negative = inhibition": "inactive: -0.245%"}, {"smiles": "COc1ccc(-c2csc(NNC3=NCCCCC3)n2)cc1", "activity change, negative = inhibition": "inactive: 0.716%"}, {"smiles": "N#CC1=C(C2CC2)CC(c2ccccc2)C(C#N)=C1N", "note": "(stereo not drawn)", "activity change, negative = inhibition": "inactive: 1.08%"}, {"smiles": "Cc1cc(N(CN2CCCC2=O)C(=O)c2ccc(F)cc2)no1", "activity change, negative = inhibition": "inactive: -0.182%"}, {"smiles": "CC[C@@H]1C=C(C(=O)O)[C@H](c2ccc(C)cc2)N1S(=O)(=O)c1ccc(C)cc1", "activity change, negative = inhibition": "inactive: -0.188%"}]}]}
